Assay results from patent US6395780B1, “Cleavage system inhibitors as potential antipsychotics” (Merck Patent GmbH, priority 1999, dated 2002).
Entries after “also recorded” stand apart in the source; their conditions may differ. At least one compound was matched to its structure with a doubt left.

Legend:
[1] = tested on: PCP-induced disruption of PPI; test: PCP-induced disruption of prepulse inhibition (PPI); format: in vivo, rats; conditions: 100 to 500 mg/kg parenterally before PCP 1-5 mg/kg s.c.; different prepulse/pulse combinations
Text: For the PCP-induced disruption of PPI we use a commercially available standard equipment (Coulbourn Instruments, USA) consisting of a sound attenuated test box equipped with a startle response measuring unit connected to a microcomputer; a white noise generator applies a constant level of back ground noise during the experiment. After a habituation period, a series of 70 combinations of prepulses (no prepulse or […] above back ground noise) and pulses (90 to 126 dB) is randomly applied to the rats. […] In control animals, presentation of the prepulse inhibits the startle response elicited by the pulse alone. PCP at the indicated doses induces a disruption of PPI by a maximum of about 70% compared to control animals. The doses indicated above are used for valproate and cysteamine, administered before the PCP challenge.

[2] = tested on: PCP-induced hyperlocomotion; test: PCP-induced hyperlocomotion model; format: in vivo; conditions: 100 to 500 mg/kg parenterally before PCP 5 mg/kg i.p.; distance traveled and locomotion time over 90 min
Protocol: For the PCP-induced hyperlocomotion model we use a test apparatus consisting of a clear plexiglass box (45 cm×45 cm) equipped with two series of equally spaced infrared beam lights controlling X-Y axes and connected to a microcomputer. Measured automatically are the distance (way) traveled [m], and the time spent with locomotion or resting [sec] in intervals of 30 min over a total of 90 minutes following PCP administration. […] PCP at the indicated dose induces excessive locomotor behavior with an increase of about 200-250% measured by either locomotion distance or time compared to control animals.

SMILES: CCCC(CCC)C(=O)O [Valproate]
- effect on PCP-induced disruption of PPI [1]: reverse PCP-induced disruption of PPI
- effect on PCP-induced hyperlocomotion [2]: reduction of PCP-induced hyperlocomotion; also recorded: reduce PCP-induced hyperlocomotion
